Measured values: patent US8399014B2, “Physiologically active complex comprising protamine and/or salt therefor and an acidic macromolecular substance, and use thereof” (Maruha Nichiro Foods, Inc., priority 2008, dated 2013)

What was measured:
[1] = Sensory test: effect of test substances on reducing the harsh/astringent taste of protamine; design: species or system human; conditions: supernatant/solution of 1:1 mixture with protamine, protamine 10 mg/mL
[2] = Study on concentration of protamine at which the harsh/astringent taste is sensed (sensory test); design: species or system human

| Molecule | Aqueous solution (taste) [1] | concentration of protamine at which all persons sensed the taste ([2]; 0.5 mL aqueous solution) | persons who had a feeling of discomfort ([2]; protamine 1,000 μg/mL) |
| --- | --- | --- | --- |
| O=C(O)CC(O)C(=O)O (racemic) [Malic acid, DL-malic acid] | No effect | – | – |
| protamine | – | 500 µg/mL | 80% |
| O=C(O)CC(O)(CC(=O)O)C(=O)O [Citric acid, citric acid (anhydride)] | No effect | – | – |
